Molecular target: rat pituitary cells (Rattus norvegicus, UniProt O08725)
Settings: read-out: PIT Cell EC50; Table III, formula IV compounds; GH release, 15 min incubation
Procedure: Pituitaries from ten rats were removed, the posterior pituitary discarded and the anterior pituitary placed in Hanks' Balanced Salt Solution (HBSS: without calcium chloride, w/o magnesium chloride, w/o magnesium sulfate; Gibco) containing 20 mM HEPES (Gibco) and 100 U/ml penicillin streptomycin (PS: JRH Biosciences). Under sterile conditions, pituitaries were rinsed twice then minced into small fragments with a razor blade. […] After the incubation, fragments were triturated to yield small clumps and single cells. The cells were centrifuged 1000× g for 5 min, resuspended, counted and plated at a final cell concentration of 100,000 cells/ml. Incubation media was DME low glucose media w/NaHCO3 (Gibco) containing 20 mM hepes, 100 U/ml PS and 10% FBS (Hyclone A-111-L). Cells were plated at 0.5 ml per well in 48 well plates (Falcon) and incubated at 37° C. in 5% C02 for three days. […] STATISTICS: The mean for each group was determined and analyzed by one-way analysis of variance with a post-hoc Student-Newman-Keuls. […] The EC50 was calculated using a 4-parameter curve-fit program (Kaleidagraph). […] RIA of pituitary hormones: LH, FSH, TSH, and Prolactin were determined with commercially available kits from Amersham, and ACTH levels were determined by a RIA kit from ICN. […]

The chains behind the UniProt entries cited, without tags or fusion partners.
UniProt O08725, whole entry: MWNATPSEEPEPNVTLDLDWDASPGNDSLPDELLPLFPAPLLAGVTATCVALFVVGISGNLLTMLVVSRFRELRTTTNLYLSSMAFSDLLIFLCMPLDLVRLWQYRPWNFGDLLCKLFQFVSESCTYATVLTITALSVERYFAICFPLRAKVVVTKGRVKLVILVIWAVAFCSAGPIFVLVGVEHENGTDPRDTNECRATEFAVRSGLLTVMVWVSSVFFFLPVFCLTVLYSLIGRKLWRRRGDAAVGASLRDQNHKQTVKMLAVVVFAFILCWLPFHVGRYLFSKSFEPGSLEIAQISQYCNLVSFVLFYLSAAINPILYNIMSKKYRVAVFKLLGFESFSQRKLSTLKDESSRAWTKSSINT

EC50: 1.1 nM
Structure (SMILES): NCCCC[C@H](NC(=O)[C@H](Cc1ccccc1)NC(=O)[C@@H](Cc1c[nH]c2ccccc12)NC(=O)[C@@H](Cc1ccc2ccccc2c1)NC(=O)C1CCNCC1)C(N)=O [(inip) b w F K amide]

From patent US7094869B2, “Low molecular weight peptidomimetic growth hormone secretagogues” (Genentech, Inc., priority 1994, dated 2006)
